Values from PubChem BioAssay AID504786 (Drosophila RNAi Screening Center, 2011).
In all, the deposit lists about 21,000 reagents; this is an unselected part of those with a known target gene and a result. 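Primary screen; positive scores mean lost reporter signal, so the sign may be inverted from the usual convention.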 The numbers tell different reagents against one gene apart. A plus sign joins genes that one reagent is predicted to hit. Further read-outs or replicates are left out here.

Aim: 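Fly genes required for HIF-dependent transcription when hypoxia is mimicked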 (primary screen)
Cells: Drosophila S2 cells with a stable HIF luciferase reporter
Reagents: long dsRNA against Drosophila genes, about 0.2 µg dsRNA per well of a 384-well plate
Time to read-out: three days of knock-down, then 20 h of DFO before reading
Challenge: desferrioxamine (DFO) at 100 µM, an iron chelator that mimics hypoxia, for 20 h
Measured: 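HIF reporter luminescence in cells given 100 µM DFO for 20 h, using the mouse ldh-a hypoxia-response element, scored as per-plate z-scores; higher means greater loss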
Scale: z-score: higher = stronger loss of HIF reporter signal

z-score, replicate 1, by target gene and reagent
Cpr49Ab (Cuticular protein 49Ab): #1 -0.3
Zip88E (Zinc/iron regulated transporter-related protein 88E): #1 -0.2
CG17486: #1 -0.2
5PtaseI (Inositol polyphosphate-5-phosphatase type I): #1 -0.2
CG44774: #1 -0.1
CG11970: #1 -0.5
CG31797: #1 -0.2; #2 -0.3
CG6262: #1 0.7
CG2162: #1 0.3
CG13476: #1 -0.3
CG32633: #1 -0.2
CG15099: #1 0
CG32110: #1 0.3
CG12541: #1 0.2; #2 -0.3
CG42366: #1 -0.1
CG32532: #1 -0.5; #2 -0.3; #3 -0.4
CG33459: #1 -0.3
CG33306: #1 -0.3
CG13532: #1 -0.3
CG31086 + CG31323: #1 -0.3
CG14110: #1 -0.4
FoxK (Forkhead box K): #1 -0.4
beat-Ib (beaten path Ib): #1 -0.3
Coa8 (Cytochrome c oxidase assembly factor 8): #1 -0.2
CG12159: #1 -0.2
CG14636: #1 -0.3
CG13725: #1 -0.6
Txl (Thioredoxin-like): #1 -0.2
Nmda1 (N-methyl-D-aspartate receptor-associated protein): #1 -0.2
CG14369: #1 -0.3
Rnf146 (Ring finger protein 146): #1 -0.4
Dap160 (Dynamin associated protein 160): #1 -0.3
Dci (Dodecenoyl-CoA delta-isomerase): #1 0.1
MnM (myomesin and myosin binding protein): #1 -0.2
lncRNA:CR32658 (long non-coding RNA:CR32658): #1 -0.3
CG10555: #1 -0.3
CG7379: #1 -0.2
mus301 (mutagen-sensitive 301): #1 0.3
rpk (ripped pocket): #1 -0.2
ry (rosy): #1 -0.3
CG14537: #1 -0.3
Rpn6 (Regulatory particle non-ATPase 6): #1 4
Prx1 (Peroxiredoxin 1): #1 -0.1
GluRIIB (Glutamate receptor IIB): #1 0
CG7272: #1 -0.2
CG17717: #1 -0.3
CG7872: #1 -0.3
CG17105: #1 0.2
CG17746: #1 -0.4
Taf5 (TBP-associated factor 5): #1 0.9
CG4860: #1 -0.2
Ugt35E1 (UDP-glycosyltransferase family 35 member E1): #1 -0.4
dmGlut (Dietary and metabolic glutamate transporter): #1 -0.1
CG1090: #1 -0.2
Polr2L (RNA polymerase II, I and III subunit L): #1 0
tej (tejas): #1 -0.4
CG13449: #1 -0.1
CG33109: #1 0.1
Mco4 (Multicopper oxidase 4): #1 -0.3
Ho (Heme oxygenase): #1 -0.4
Rh50: #1 -0.2
CG17122: #1 -0.3
Dtd (D-aminoacyl-tRNA deacylase): #1 -0.4
CG32523: #1 -0.1
iotaTry (iotaTrypsin): #1 -0.1

Copied from the entries so far, 14 entries:
z-score, replicate 1, by target gene and reagent
GluRIIB (Glutamate receptor IIB): #1 0
CG7272: #1 -0.2
CG17717: #1 -0.3
CG7872: #1 -0.3
CG17105: #1 0.2
CG17746: #1 -0.4
Taf5 (TBP-associated factor 5): #1 0.9
CG4860: #1 -0.2
Ugt35E1 (UDP-glycosyltransferase family 35 member E1): #1 -0.4
dmGlut (Dietary and metabolic glutamate transporter): #1 -0.1
CG1090: #1 -0.2
Polr2L (RNA polymerase II, I and III subunit L): #1 0
tej (tejas): #1 -0.4
CG13449: #1 -0.1

The listing continues.
z-score, replicate 1, by target gene and reagent
moi + Tgs1: #1 -0.9
CG2104: #1 -0.3
Tmtc1 (Transmembrane O-mannosyltransferase targeting cadherins 1): #1 -0.1; #2 0; #3 -0.2; #4 -0.1
Ccn: #1 -0.3; #2 -0.1; #3 -0.4; #4 0.3
Fsn (F-box synaptic protein): #1 -0.2
Pglym78 (Phosphoglyceromutase 78): #1 -0.4
CG31199: #1 -0.2
CG1394: #1 0
ORMDL (Orosomucoid 1-like): #1 -0.3
CG15831 (retired record): #1 -0.1
CG15333: #1 -0.3; #2 -0.4
rumi: #1 -0.2
in (inturned): #1 -0.2
Dop1R2 (Dopamine 1-like receptor 2): #1 -0.2; #2 -0.1
CG34028: #1 -0.2
Sb (Stubble): #1 -0.4
Ir7c (Ionotropic receptor 7c): #1 0
CG13023: #1 -0.4; #2 -0.3
Rel (Relish): #1 -0.3
DNAlig4 (DNA ligase 4): #1 -0.1
CG18367: #1 -0.4
CG32647: #1 -0.2; #2 0.4
CG13326: #1 -0.2
MICU1 (Mitochondrial calcium uptake 1): #1 -0.3
CG2841: #1 0.1; #2 -0.2
CG34224: #1 0.1
